PubChem BioAssay AID540276 (National Center for Advancing Translational Sciences (NCATS), 2011)
Several values for one entry are separate records, joined by “and”; a condition that tells them apart may be missing. Identical values can stand only once. Out of some 300,000 compounds screened, about 5,400 (1.8%) were called active. The inconclusive results got no clear call from the source; some entries with a clear call stand among them for comparison. Calls follow the shape of the full dose curve; tested in HEK293 cells. Where the call is inconclusive, the potency comes from a doubtful curve fit.
% is scaled to controls: 0 for no effect and ±100 for the full control effect; potency is read from the fitted curve at half-maximal effect.

Assay: qHTS for inhibitors of binding or entry into cells for Marburg Virus
Conditions: Marburg virus pseudotyped entry inhibition, cell reporter; activity change, negative = inhibition: at 37.8 µM (top of the series) unless noted
For `COc1ccc(NC(=O)CCn2c(=S)[nH]c3ccccc3c2=O)cc1`, the Potency was inconclusive: 3.55 µM [inhibitor, partial curve, poor fit].
With `O=C(NC1CCCCCC1)c1cccc(N2CCCC2=O)c1` the Potency was inconclusive: 12.6 µM [inhibitor, single point].
In the case of `Cc1nnsc1-c1c(C(=O)N2CCOCC2)c(C)nn1-c1ccc(Cl)cc1`, the “activity change, negative = inhibition” value is reported as inactive: 13.3% [at 46.1 µM].
With `Cn1nc(C(=O)OCC(=O)c2ccc[nH]2)c2ccccc2c1=O` the “activity change, negative = inhibition” value was inactive: 5.57% [at 46.1 µM].
With `Cn1nnnc1SCC(=O)N1CCc2ccccc21` the Potency was inconclusive: 0.501 µM [activator, full curve, poor fit].
For `COc1ccc(C)cc1NC(=O)CSc1nnc2ccc(-c3ccccn3)nn12`, the “activity change, negative = inhibition” value was inactive: 22.8% [at 46.1 µM].
In the case of `CCOC(=O)N1CCC(NS(=O)(=O)c2cc3c(cc2Cl)NC(=O)CO3)CC1`, the “activity change, negative = inhibition” value is reported as inactive: -27.2% [at 46.1 µM].
In the case of `c1ccc(-c2c(-c3ccccc3)n(Cc3ccco3)c3ncnc(NCCCn4ccnc4)c23)cc1`, the Potency is reported as inconclusive: 11.2 µM [inhibitor, partial curve, poor fit].
With `CCCNC(=S)NNC(=O)c1cccs1` the “activity change, negative = inhibition” value was inactive: 7.95% [at 46.1 µM].
For `CC(C)n1c(NCCc2ccccc2)nc2c1c(=O)n(C)c(=O)n2C`, the Potency was inconclusive: 3.55 µM [inhibitor, full curve, poor fit].
For `CCCC(C(=O)NCc1ccccc1)N(C(=O)Cn1nnc(-c2cccs2)n1)c1ccc2c(c1)OCCO2` (stereo not given), the Potency was inconclusive: 20 µM [inhibitor, partial curve, poor fit].
For `CCOc1cccc(C(=O)Nc2cccc(NC(=O)c3ccco3)c2)c1`, the Potency was inconclusive: 5.62 µM [inhibitor, partial curve, poor fit].
With `Cc1ccc(C2CCN(C(=S)NC3CCCCC3)C2)cc1` (stereo not given) the Potency was inconclusive: 35.5 µM [inhibitor, single point].
In the case of `C/C(=N\NC(=O)C(N)=O)c1ccc(OC(F)F)cc1`, the “activity change, negative = inhibition” value is reported as inactive: 17.8% [at 46.1 µM].
For `COC(=O)c1ccccc1NC(=O)Cn1c(=O)n(CCCCC(=O)NCc2ccc3c(c2)OCO3)c(=O)c2ccccc21`, the “activity change, negative = inhibition” value was inactive: -1.09% [at 46.1 µM].
For `Cc1cc(C)n(-c2nc(SCCN(C)C)c3c4c(sc3n2)COC(C)(C)C4)n1`, the Potency was inconclusive: 29.1 µM [inhibitor, single point].
With `O=C(Nc1ccc2c3c(cccc13)CC2)c1ccco1` the Potency was inconclusive: 10 µM [activator, partial curve].
With `Cc1ccc(NC(=O)Cn2ncn3c(cc4ccccc43)c2=O)cc1C` the Potency was active: 12.6 µM.
With `O=C(OCc1nc2ccccc2s1)c1cccc(N2C(=O)CCC2=O)c1` the “activity change, negative = inhibition” value was inactive: 3.94% [at 46.1 µM].
With `CCN(CC)S(=O)(=O)c1ccc(NC(=O)COc2c(OC)cccc2OC)cc1` the “activity change, negative = inhibition” value was inactive: -18.3%.
For `CCc1ccc(C(=O)C(C)OC(=O)c2nc3nc(C)cc(C)n3n2)cc1` (stereo not given), the Potency was inconclusive: 12.6 µM [activator, single point].
For `CSCCC(NS(=O)(=O)c1ccc2c(c1)oc(=O)n2C)C(=O)NCc1cccs1` (stereo not given), the Potency was inconclusive: 35.5 µM [inhibitor, single point].
In the case of `O=C(Nc1cccc(-n2cccn2)c1)C1CCCN(Cc2cccc(F)c2F)C1` (stereo not given), the Potency is reported as inconclusive: 31.6 µM [inhibitor, partial curve, poor fit].
In the case of `Cc1cc(S(=O)(=O)N2CCCC2)ccc1OCC(=O)NCc1ccco1`, the “activity change, negative = inhibition” value is reported as inactive: 0.959%.
For `Cc1ccc(CNC(=O)c2cccc(Nc3nc4ccccc4n4nnnc34)c2)cc1`, the “activity change, negative = inhibition” value was inactive: 1.06% [at 46.1 µM].
With `COc1ccc(CNCCS(=O)(=O)NCc2ccc(OC)cc2)cc1` the Potency was inconclusive: 0.0016 µM [activator, full curve, poor fit].
In the case of `O=C(O)c1cccc(NC(=S)N/N=C/c2ccccc2OCc2cccc(Br)c2)c1`, the “activity change, negative = inhibition” value is reported as inactive: -10.5%.
In the case of `Cn1cc([N+](=O)[O-])c(C(=O)Nc2ccc(Br)cn2)n1`, the “activity change, negative = inhibition” value is reported as inactive: 3.34%.
For `CC#CCCCC(=O)Nc1ccccc1C(=O)O`, the “activity change, negative = inhibition” value was inactive: 20.5%.
With `COc1ccc(C(=O)N/N=C\C(C)=C\c2ccccc2)cc1OC` the “activity change, negative = inhibition” value was inactive: -6.24%.
For `Cc1cccc(OCC(=O)Nc2ccc(N3CCCC3)cc2)c1C`, the “activity change, negative = inhibition” value was inactive: -5.8%.
With `CC(C)C/C(=N/O)c1cn(C)c2ccccc12` the Potency was inconclusive: 35.5 µM [inhibitor, single point].
For `CC(=CCO)CCO`, the “activity change, negative = inhibition” value was inactive: 1.75% [at 14.2 µM].
For `Cc1cccc(NC(=O)NC2(C(=O)NCc3ccco3)CCCCC2)c1`, the Potency was inconclusive: 12.6 µM [inhibitor, partial curve, poor fit].
With `COc1ccc2cc(CN(CC3CCCO3)C(=O)Nc3ccccc3OC)c(=O)[nH]c2c1` (stereo not given) the Potency was inconclusive: 1.12 µM [inhibitor, full curve].
For `CCNc1sc(S(C)(=O)=O)nc1S(=O)(=O)c1ccc(C)cc1`, the Potency was inconclusive: 31.6 µM [activator, partial curve, poor fit].
For `CCOC(=O)c1cc(C)n(Cc2ccc(OCC)c(OC)c2)c1C`, the “activity change, negative = inhibition” value was inactive: -24.2%.
For `O=C(NC1CCCCC1)C(=S)NCc1ccccc1`, the Potency was inconclusive: 7.94 µM [activator, partial curve, poor fit].
For `CC(C)(C)c1ccc(NC(=O)COc2ccc(-n3ccnc3)cc2)cc1`, the Potency was inconclusive: 15.8 µM [inhibitor, partial curve, poor fit].
In the case of `Cc1ccc(-c2noc(C3CCCN(C(=O)C4CCCCC4)C3)n2)o1` (stereo not given), the “activity change, negative = inhibition” value is reported as inactive: 2.57%.
For `C=CCn1c(=S)[nH]c2cc(C(=O)Nc3ccc(F)cc3)ccc2c1=O`, the Potency was inconclusive: 0.891 µM [inhibitor, full curve, poor fit].
For `O=C(O)c1cc(=O)c2ccccc2[nH]1`, the Potency was inconclusive: 2.31 µM [activator, full curve, poor fit] and inconclusive: 5 nM [inhibitor, full curve, poor fit].
For `O=C(Nc1cc2c(cc1Br)OCCCO2)c1ccccc1`, the Potency was inconclusive: 0.891 µM [activator, full curve, poor fit].
With `CCn1c(SCc2nc3scc(-c4ccccc4)c3c(=O)[nH]2)nnc1-c1ccc(Cl)cc1` the Potency was inconclusive: 0.447 µM [activator, partial curve, poor fit].
With `CC1Oc2ccccc2N(CC(=O)Nc2ccc3c(c2)OCO3)C1=O` (stereo not given) the “activity change, negative = inhibition” value was inactive: 20.6%.
For `O=C(COC(=O)c1cc([N+](=O)[O-])ccc1N1CCOCC1)Nc1ccc(Cl)cn1`, the Potency was inconclusive: 10 µM [inhibitor, partial curve, poor fit].
With `O=C(Cn1c(=O)n(Cc2ccc(C(=O)NCc3ccc4c(c3)OCO4)cc2)c(=O)c2ccccc21)Nc1cccc(Cl)c1` the “activity change, negative = inhibition” value was inactive: -9.19% [at 46.1 µM].
In the case of `COC(=O)c1ccccc1NC(=O)C1CC(=O)N(c2ccc(C)c(C)c2)C1` (stereo not given), the Potency is reported as inconclusive: 29.1 µM [inhibitor, single point].
For `CN(C(=O)Cn1cnc2ccccc2c1=O)C1CCS(=O)(=O)C1` (stereo not given), the “activity change, negative = inhibition” value was inactive: -6.11%.
In the case of `COc1ccccc1NC(=O)Cn1c(=O)n(-c2cccc(Cl)c2)c(=O)c2sc3ccccc3c21`, the Potency is reported as inconclusive: 5.62 µM [inhibitor, single point].
In the case of `Cc1ccc(S(=O)(=O)Cc2ccc(C(=O)N3CCN(c4ccccn4)CC3)o2)cc1`, the “activity change, negative = inhibition” value is reported as inactive: -0.854%.
For `CC1CCN(S(=O)(=O)c2ccc(C(C)C)cc2)CC1`, the Potency was inconclusive: 14.1 µM [inhibitor, partial curve, poor fit].
In the case of `O=C(Nc1nnc(C2=COCCO2)o1)c1ccc(Cc2ccccc2)cc1`, the Potency is reported as inconclusive: 35.5 µM [inhibitor, single point].
For `Cc1ccc(N2CC(O)=C(c3nc4ccccc4c(=O)[nH]3)C2=N)cc1C`, the Potency was inconclusive: 15.8 µM [inhibitor, single point].
For `CC1CCN(C(=O)CSc2nnc(CN3CCOCC3)n2-c2ccccc2)CC1`, the Potency was inconclusive: 0.58 µM [inhibitor, partial curve, poor fit].
In the case of `CCN=C1SC(C(=O)Nc2cccc(OCC)c2)CC(=O)N1CC` (stereo not given), the Potency is reported as inconclusive: 1.16 µM [inhibitor, partial curve, poor fit].
In the case of `CCNc1nc2c(cnn2C)c(=O)[nH]1`, the “activity change, negative = inhibition” value is reported as inactive: -12.5%.
In the case of `O=C(O)CC/C(=C\c1ccc(Cl)c([N+](=O)[O-])c1)c1nc2ccccc2s1`, the Potency is reported as inconclusive: 1.26 µM [activator, single point].
For `Cc1ccc(CNC(=O)CCc2ccc(S(=O)(=O)NC3CCCCC3)cc2)cc1`, the “activity change, negative = inhibition” value was inactive: 23.8%.
With `CCOc1ccc(CCNC(=O)c2cc(Nc3ccc(C)cc3C)nc3ccccc23)cc1OCC` the “activity change, negative = inhibition” value was inactive: -17.9% [at 46.1 µM].
For `O=C(OCC#CCSc1nc2ccccc2s1)c1ccco1`, the Potency was inconclusive: 4.61 µM [inhibitor, single point].
For `O=C(O)Cc1ccc(NC(=O)CCN2C(=O)c3ccc([N+](=O)[O-])cc3C2=O)cc1`, the Potency was inconclusive: 5.62 µM [inhibitor, single point].
For `Cc1cc(-c2ccccc2)n(-c2ccc(C(N)=O)cc2)n1`, the Potency was inconclusive: 3.98 µM [activator, full curve, poor fit].
For `CCOc1ccc(C(=O)NCCn2cc(SCC(=O)Nc3cc(C)on3)c3ccccc32)cc1`, the Potency was inconclusive: 35.5 µM [inhibitor, single point].
For `CCc1ccc(C(=O)CN2C(=O)NC(C)(c3ccc(C)cc3)C2=O)cc1` (stereo not given), the “activity change, negative = inhibition” value was inactive: -0.0275%.
With `CCOC(=O)c1cc(-c2ccc(C)cc2)n(CCC(=O)Nc2cc(Cl)ccc2C)c1C` the Potency was inconclusive: 3.16 µM [inhibitor, partial curve, poor fit].
For `CCC1CCCCN1S(=O)(=O)c1ccc(NC(=O)CSc2ncccc2C(=O)O)cc1` (stereo not given), the “activity change, negative = inhibition” value was inactive: -9.18%.
With `CCN1CCN(S(=O)(=O)c2ccc(S(=O)(=O)NC3CC3)cc2)CC1` the Potency was inconclusive: 17.8 µM [activator, single point].
In the case of `Cc1ccccc1NC(=O)Nc1nnc(Cc2ccc([N+](=O)[O-])cc2)s1`, the Potency is reported as inconclusive: 0.112 µM [activator, full curve, poor fit].
For `NC(=S)c1ccc(C(N)=S)o1`, the Potency was inconclusive: 20.6 µM [activator, partial curve, poor fit].
